Experimental data as given in US9457062B2, “Chaperonin 10-induced immunomodulation” (CBIO LIMITED, priority 2005, dated 2016).
At least one compound was matched to its structure with a doubt left.

Biological target: T1, TLR7 (Homo sapiens, UniProt Q9NYK1)
T1 construct: Freshly-isolated human monocytes or monocyte-derived DC were stimulated with 100 ng/ml LPS; endogenous in cells; host or cells: human monocyte-derived DC
T1 sequence (Q9NYK1 27-1049): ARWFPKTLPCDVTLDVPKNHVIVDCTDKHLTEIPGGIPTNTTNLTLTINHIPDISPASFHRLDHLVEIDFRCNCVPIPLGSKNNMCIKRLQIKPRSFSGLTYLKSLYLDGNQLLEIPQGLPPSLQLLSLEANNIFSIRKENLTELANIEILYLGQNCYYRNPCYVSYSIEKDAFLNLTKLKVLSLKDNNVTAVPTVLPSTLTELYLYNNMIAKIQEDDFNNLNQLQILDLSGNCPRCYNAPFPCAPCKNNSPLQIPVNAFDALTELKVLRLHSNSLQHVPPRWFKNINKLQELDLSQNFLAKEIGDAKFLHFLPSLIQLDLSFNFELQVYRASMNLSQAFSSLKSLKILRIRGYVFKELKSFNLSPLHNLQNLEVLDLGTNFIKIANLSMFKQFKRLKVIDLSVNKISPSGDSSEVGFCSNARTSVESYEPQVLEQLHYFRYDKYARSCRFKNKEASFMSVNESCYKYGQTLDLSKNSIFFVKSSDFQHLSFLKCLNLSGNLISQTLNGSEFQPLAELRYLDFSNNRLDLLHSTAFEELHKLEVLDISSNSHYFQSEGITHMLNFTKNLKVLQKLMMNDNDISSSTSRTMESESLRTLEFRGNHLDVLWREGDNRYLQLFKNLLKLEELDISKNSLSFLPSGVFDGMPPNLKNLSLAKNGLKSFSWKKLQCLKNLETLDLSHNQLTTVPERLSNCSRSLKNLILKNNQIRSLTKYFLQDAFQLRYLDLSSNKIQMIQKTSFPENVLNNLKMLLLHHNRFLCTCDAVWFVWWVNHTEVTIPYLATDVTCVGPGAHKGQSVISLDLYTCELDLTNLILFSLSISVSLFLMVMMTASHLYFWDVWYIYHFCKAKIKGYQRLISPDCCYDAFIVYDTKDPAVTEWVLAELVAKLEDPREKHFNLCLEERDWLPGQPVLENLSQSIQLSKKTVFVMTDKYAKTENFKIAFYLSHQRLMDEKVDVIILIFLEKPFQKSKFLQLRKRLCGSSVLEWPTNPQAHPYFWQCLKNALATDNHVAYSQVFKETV
Experiment: NF-κB-luciferase reporter in HEK293 cells expressing TLR7
Type: cell-based
Conditions: R848 0.32-40 μM, no Cpn10

With CCOCc1nc2c(N)nc3ccccc3c2n1CC(C)(C)O [R848] the “NF-κB activation via TLR7” value was “more than 5 fold”.
